Laboratory results taken from US20140051815A1, “ORGANIC SULFONIC ACID COMPOUND, DOPANT HAVING SAME, AND CONDUCTIVE POLYMER COMPLEX HAVING THE DOPANT” (Ajou University Industry-Academic Cooperation Foundation, priority 2011, published 2014).

Test: Electrical conductivity of doped polyaniline (ES) films, four-point probe
Type: physicochemical
Details: for Conductivity: polyaniline doped with dopant; for Conductivity of CSA + dopant in m-cresol: polyaniline with CSA + dopant (10%), or CSA alone
Procedure: Before a polyaniline film was manufactured, a polyaniline (ES) solution was prepared as follows. In order to prepare polyaniline (ES) solutions respectively doped with the dopant I to the dopant VI, a molar ratio of a polyaniline (EB) tetramer unit to each of the dopant I to the dopant VI was set to 1:2 and a total content of them was set to 1.5 wt. % with respect to m-cresol as a solvent. A mixture of the polyaniline (EB) with each of the dopant I to the dopant VI was uniformly grounded and mixed in a mortar for 30 minutes. The mixture powder was put into each of solvents NMP and m-cresol and dissolved at a speed of 24,000 rpm for 10 minutes by using a homogenizer. Each of the prepared solutions was put on a glass plate on a hot plate set to from 40° C. to 50° C. and dried for 48 hours or more so as to manufacture a film. The glass plate (2.5 cm×2.5 cm×0.1 cm) was immersed in aqua regia for 4 hours or more and then taken out to wash a surface thereof with secondary distilled water and ethanol before use.
Then, with respect to each film prepared, conductivity and sheet resistance were measured and results thereof are as shown in the following Tables 1 to 3.
The conductivity was measured by using a four-point probe method in order to remove contact resistance between a gold wire electrode and a sample. The film and the gold wire were brought into contact with each other by using carbon paste. A thickness of the film was measured by using a micrometer produced by Mitutoy.
A current and a voltage were measured by using a Source-Measure Units Model 237 produced by Keithley Instruments. According to the measurement method, when a constant source current (I, DC) was applied to two outside terminals, a voltage difference (V) caused by the application was measured at the two inside terminals.
Electrical conductivity was calculated by using the following formula.
When electrical conductivity of a very thin sample such as a semiconductor wafer or a conductive coating was measured, the measurement was carried out by using a collinear four-point probe method.
A collinear four-point probe was purchased from Jandel Engineering Ltd. and used. This probe was connected to the Source-Measure Units Model 237 produced by Keithley Instruments. The measurement was carried out in the same manner as the four-probe method, and a calculation formula was as follows.
In Tables 1 to 3, the term “over” described with respect to conductivity means that measurement cannot be made at a conductivity of 10^−3 S/cm or less, and the term “over” described with respect to sheet resistance means that measurement cannot be made at a sheet resistance of 10^5Ω or more.

[1] = m-cresol, 1.2 μm Filter: Mixed for 30 minutes
[2] = m-cresol, 1.2 μm Filter: Not mixed

| SMILES | Conductivity (NMP, 1.2 μm Filter: Mixed for 30 minutes) [S/cm] | Conductivity of CSA + dopant in m-cresol (m-cresol) [S/cm] | Conductivity [1] | Conductivity [2] |
| --- | --- | --- | --- | --- |
| CC1(C)C2CC[C@@]1(CS(=O)(=O)O)C(=O)C2 [CSA, (1S)-(+)-10-camphorsulfonic acid, reference compound] | 21.56 | 247 | – | – |
| O=S(=O)(O)CCCOc1ccc(O)cc1 [Dopant II] | – | 211 | OVER (measurement cannot be made at a conductivity of 10^−3 S/cm or less) | OVER (measurement cannot be made at a conductivity of 10^−3 S/cm or less) |
| Cc1cccc(OCCCS(=O)(=O)O)c1 [Dopant I] | – | 179 | 59.66 S/cm | OVER (measurement cannot be made at a conductivity of 10^−3 S/cm or less) |
